Source: article PMC10163288
The other results are listed elsewhere or left out.

B1: il2ra_site1_3nfp_sap_16_mot_HHH_b1_00821_000000039_0001_1_20_H_._HHH_b1_08092_af2_0001_0000600017_0000001_1_0001 (protein)
chain: SANKYAVELALRSGDFEAALRLLERAAKSFGDPKFEEIVEEAKELLERGVPPEEVARILEELLER
B2: il2ra_site2_2erj_sap_21_mot_HHH_b1_04373_af2_000000118_0001_18_33_H_._HHH_b2_06097_af2_0001_0000400031_0000001_0_0001_af2pred_0001_af2pred (protein)
chain: SSSSDAHELFKLARLAEELLLRGDKEEAEEVIEKLRELAEELNNKAARQALRILEELLEELSSSS
B3: il2ra_site2_2erj_normal_mot_HHH_b1_03107_000000098_0001_39_52_H_._HHH_b2_01132_0001_0000100001_0000001_0 (protein)
chain: SSSSSDVREIWEEVARLLAEAAHIKDPEEVRKLLEEAERLAEEANSPYLERYVEFARRDASSSSS
B4: il2ra_site1_3nfp_normal_mot_HHH_b1_00678_af2_000000150_0001_43_56_H_._HHH_b1_08381_0001_0000700044_0000001_0 (protein)
chain: SSSSTEVERRVLELIKEALRLKREGDPEQAREILEEALEIARENNDRIAARLLEDALRLLNSSSS
B5: il2ra_site2_3nfp_sap_16_mot_HHH_b1_06174_af2_000000017_0001_40_57_H_._6048afb1487e1bae81da528158059565_0001_af2_0001_0000600031_0000001_0_0001 (protein)
chain: SSSSSEAEEYIKTALELAKRTPDPEIARRMVELALLAARSNQDEELEREAEELRQEIENSSSSSS
B6: il2ra_site1_2b5i_sap_15_mot_HHH_b2_04274_000000042_0001_1_19_H_._HHH_b1_02492_0001_0000200010_0000001_0_0001_af2pred_0001_af2pred_1 (protein)
chain: SSSSSDFHEILELYREASELFRRGDPEEARKVLEKALELAEELGDERIRRELERLLELLKSSSSS
B7: il2ra_site1_3nfp_sap_24_mot_HHH_b1_05128_000000175_0001_22_38_H_._HHH_b1_08248_0001_0000200014_0000001_0_0001 (protein)
chain: SLEEKLEEILKQYLPPVEVRALLRLVEQARRSANVPPEEAVRLLIELLKRLGNPELAEILEEALR
B8: il2ra_site2_2erj_normal_mot_ems_3hM_1508_000000265_0001_1_20_H_._HHH_b2_01938_af2_0001_0000400031_0000001_0 (protein)
chain: SSSSSDVEERVLELLQEALRVQDEEEFRELLEEAKRLAEELGDEELRLMIEVLEEYFERLSSSSS
B9: il2ra_site1_3nfp_normal_mot_c3f6a624e0b36238ad1b06fe81c08c0c_0001_1_af2_000000203_0001_51_65_H_._c99de99df9ecc9fdd090aa5ad7eabf9c_0001_af2_0001_0000200012_00000 … (protein)
chain: SAAEIAIRWAVERNNPKLVKKLLEQIERHLRRGNPAAKEAIELLEELLEELGNEELLEEVEKVRK
B10: il2ra_site1_2b5i_normal_mot_HHH_b2_04910_000000118_0001_1_19_H_._HHH_b2_07197_af2_0001_0000200006_0000001_0_af2pred_dldesign_0_af2pred (protein)
chain: SSSSSPGEEARRLFLRFDEAYKAGDEAAVARLAAELRRLAEEKKCGIARKNLAVAQRFLGSSSSS
B11: il2ra_site2_2erj_sap_26_mot_HHH_b1_03572_af2_000000146_0001_41_56_H_._HHH_b1_08564_0001_0000100011_0000001_0_0001 (protein)
chain: SSSSSDVEERVLELIARAAEIKDPEEVRRLLEEALELAEENNDELLERYVELSLREAEKSSSSSS
B12: il2ra_site1_1z92_normal_mot_01209686ea234b34325f918445e6eade_0001_af2_000000154_0001_18_33_H_._8f8e71037d2208c0bcbb37bb3b3df6f7_0001_0001_0000600019_0000001_0_a … (protein)
chain: SEEELEELIEELEKAPDPDERAAAYDLKHALEQGIPPEAVLRAVIRNLEAAGNPEVAKKLQEILK
B13: il2ra_site2_2erj_normal_mot_HHH_b2_04478_af2_000000122_0001_23_39_H_._HHH_b1_06980_0001_0000100002_0000001_0 (protein)
chain: SSSSDVEELLEEIEELLRRGDLEEAEKLLHEASELAFERNDFELFSAVAELTHLIARLEVSSSSS
B14: il2ra_site2_3nfp_sap_23_mot_HHH_b1_06431_000000233_0001_39_56_H_._HHH_b1_02296_af2_0001_0000200009_0000001_0_0001 (protein)
chain: SSSSDYEEEVRELLERVEELLENGNPEEAEKALARASHIAFRHNDSELFFEIAELAYRVFQSSSS
B15: il2ra_site1_2b5i_sap_12_mot_HHH_b1_06317_000000089_0001_24_40_H_._HHH_b1_04837_af2_0001_0000300014_0000001_0_0001_af2pred_0001_af2pred (protein)
chain: SSSDEIREIMKLLREAFRLLREGNPEEARKLAEEAEELVEEAKNPALKRIVELLKELIEQKSSSS
B16: il2ra_site1_1z92_sap_22_mot_HHH_b2_05734_000000004_0001_1_18_H_._8fa6976bf83f87873b50afdd12020151_0001_1_0001_0000300018_0000001_0_0001_af2pred_0001_af2pred_1_s … (protein)
chain: SSSSDEREKKSLELAVRIAVEIAGLSEEDEEKLEELLEELLERGVSFLEALRELDRVAAELSSSS
B17: il2ra_site2_2erj_sap_11_mot_HHH_b1_06697_000000025_0001_41_54_H_._HHH_b1_00902_0001_0000600018_0000001_0_0001 (protein)
chain: SSSSNEDLHELYKILVRLLRLVAEGDREELEELLKEAEKLAERLQSPNVEEIIELLKRKGSSSSS
B18: il2ra_site1_1z92_normal_mot_01209686ea234b34325f918445e6eade_0001_af2_000000144_0001_18_33_H_._5b5174569719974cf8d79a489bb4e86b_0001_af2_0001_0000400040_0000001 … (protein)
chain: GPEEVLEELKESGDPALELFVRLFEQMLRLGATPKAILHALKIAAERLGSPELERAIRLFEELER
B19: il2ra_site1_2b5i_normal_mot_HHH_b1_07278_af2_000000289_0001_23_39_H_._HHH_b1_01150_af2_0001_0000100005_0000001_0_af2pred_0001_af2pred_1 (protein)
chain: SSSSSLEEFAEKVVEKLVEEFNLSESLKRQLQRIAELAAKNGESEEQIEEFLRKFAEIASSSSSS

Biological target: il2ra, P01589
Test: yeast display titration

Apparent Kd, inactive:
B1 no binding seen
B2 no binding seen
B3 no binding seen
B4 no binding seen
B5 no binding seen
B6 no binding seen
B7 no binding seen
B8 no binding seen
B9 no binding seen
B10 no binding seen
B11 no binding seen
B12 no binding seen
B13 no binding seen
B14 no binding seen
B15 no binding seen
B16 no binding seen
B17 no binding seen
B18 no binding seen
B19 no binding seen

For reference, part of the list above:
Apparent Kd, inactive:
B18 no binding seen
B19 no binding seen
